According to patent publication US5312746:

How the values were obtained:
[1] = system: ClaI modification methylase (M.ClaI) (Caryophanon latum); test: activity in cells; conditions: methylation protects resident plasmid and host chromosomal DNA from ClaI digestion; protein in cells; only the site is given
[2] = system: ClaI restriction endonuclease (Caryophanon latum); test: enzyme reaction in vitro; conditions: cell extract, lambda DNA, REact 1 buffer, 37 C 1 h; ClaI-size bands; both clones active; protein in a lysate after overexpression

Row | Sequence | activity on this sequence [1] | activity on this sequence [2]
1 | ATCGAT (double strand) [ClaI recognition site (in plasmid and E. coli host DNA)] | active | –
2 | ATCGAT (double strand) [ClaI recognition site (in lambda DNA)] | – | active

For at least one entry, the source does not settle the construct or the ends of the probe.
